Experiment: Evaluation of elution rates of analgesic from a 0.5 gm composition button in phosphate buffer, HPLC-UV
Type: physicochemical
Description: An evaluation of elution rates was obtained by submitting the compositions under consideration to the following: […] The surface area exposed to the buffer is about 0.785 sq. cm. One cc aliquots of the buffer solution are taken over a three day period, every 2 hours during business hours of day one, then several times on each of days two and three. […] The presence of lidocaine in the supernatant over the three day period is evidence of the release of pain-relieving amounts of the analgesic. The same procedure was followed for measurement of the elution of bupivacaine free base and hydrochloride.

elution of free base relative to the salt (in a free base/salt mixture): elutes more rapidly
SMILES: CCN(CC)CC(=O)Nc1c(C)cccc1C [lidocaine free base, lidocaine, reference compound]
elution of free base relative to the acid addition salt: elutes faster than the acid addition salt

Source: US8603528B2, “Compositions and method for the reduction of post-operative pain” (ABYRX, Inc., priority 2004, dated 2013)
